Measured values reported in US20110126301A1.
No constants are given. Whether binding was seen depends on the method and setting. Some binding calls cover weakened binding; strength is not graded here. For part of these data: Sequences can lack the tags named with a protein.

T1: mouse 5B6 (Clec9A), membrane bound (mouse)
T1 sequence: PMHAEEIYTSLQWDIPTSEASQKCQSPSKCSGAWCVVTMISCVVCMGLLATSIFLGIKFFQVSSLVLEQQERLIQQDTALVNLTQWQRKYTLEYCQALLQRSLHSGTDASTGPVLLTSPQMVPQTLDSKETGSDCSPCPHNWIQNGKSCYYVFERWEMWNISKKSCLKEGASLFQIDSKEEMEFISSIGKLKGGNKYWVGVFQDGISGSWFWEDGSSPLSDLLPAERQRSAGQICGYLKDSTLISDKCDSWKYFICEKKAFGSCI


Legend:
[1] = target: T1, mouse 5B6 (Clec9A), membrane bound (mouse); assay: flow cytometry on transfected cells and fresh mouse hemopoietic cells
[2] = target: T1, mouse 5B6 (Clec9A), membrane bound (mouse); assay: hybridoma supernatants screened by flow cytometry on CHO 5B6-FLAG and EL4 GFP-5B6 cells
[3] = target: T1, mouse 5B6 (Clec9A), membrane bound (mouse); assay: flow cytometry on CHO-m5B6 (FIG. 11C); streptavidin-PE
[4] = target: T1, mouse 5B6 (Clec9A), membrane bound (mouse); assay: flow cytometry, biotinylated soluble protein on CHO-m5B6 cells; streptavidin-PE
[5] = target: T1, mouse 5B6 (Clec9A), membrane bound (mouse); assay: flow cytometry on 293T-m5B6 (FIG. 11B) and CHO-m5B6 (FIG. 11C)
[6] = target: T1, mouse 5B6 (Clec9A), membrane bound (mouse); assay: flow cytometry on transiently transfected 293T cells; anti-FLAG 9H10-biotin and streptavidin-PE

Binder	binding [1]	binding [2]	binding [3]	binding [4]	binding [5]	binding [6]
rat mAb 24/04-10B4 (anti-5B6 / anti-Clec9A antibody) (antibody, V domains shown) VH: AVQIVESGGGLVQPKESLKISCTASGFTFSNAAIYWVRQTPGKGLEWVGRIRTRPSKYATDYADSVRGRFTISRDDSKSMVYLQMDNLRTEDTAMYYCTPRATEDVPFYWGQGVMVTVSS VL: DIVMTQTPSSQAVSAGEKVTMNCKSSQSVLYDENKKNYLAWYQQKSGQSPKLLIYWASTGESGVPDRFIGSGSGTDFTLTISSVQAEDLAVYYCQQYYDFPPTFGGGTKLELKR	binds	binds				
soluble FLAG-tagged human 5B6 without stalk (receptor, enzymatically biotinylated at the biotinylation consensus sequence) ASISARQNSGLHHILDAQKMVWNHRGARQDYKDDDDKTRNSSPCPNNWIQNRESCYYVSEIWSIWHTSQENCLKEGSTLLQIESKEEMDFITGSLRKIKGSYDYWVGLSQDGHSGRWLWQDGSSPSPGLLPAERSQSANQVCGYVKSNSLLSSNCSTWKYFICEKYALRSSV			binds	binds		

Next, values leading:

binding [1]	binding [2]	binding [3]	binding [4]	binding [5]	binding [6]	Binder
		binds	binds			soluble FLAG-tagged mouse 5B6 without stalk (receptor, enzymatically biotinylated at the biotinylation consensus sequence) ASISARQNSGLHHILDAQKMVWNHRGARQDYKDDDDKTRGSDCSPCPHNWIQNGKSCYYVFERWEMWNISKKSCLKEGASLFQIDSKEEMEFISSIGKLKGGNKYWVGVFQDGISGSWFWEDGSSPLSDLLPAERQRSAGQICGYLKDSTLISDKCDSWKYFICEKKAFGSCI
			binds	binds	binds	soluble FLAG-tagged mouse 5B6 including stalk (receptor) ASISARQNSGLHHILDAQKMVWNHRGARQDYKDDDDKTREQQERLIQQDTALVNLTQWQRKYTLEYCQALLQRSLHSGTDASTGPVLLTSPQMVPQTLDSKETGSDCSPCPHNWIQNGKSCYYVFERWEMWNISKKSCLKEGASLFQIDSKEEMEFISSIGKLKGGNKYWVGVFQDGISGSWFWEDGSSPLSDLLPAERQRSAGQICGYLKDSTLISDKCDSWKYFICEKKAFGSCI
